No constants are given. Whether binding was seen depends on the method and setting. Binding seen in cells or lysates may run through a third protein. Here binding means that the protein was enriched with, or labelled near, the bait; the list need not be complete. For part of these data: A no says only that the protein was not detected with the bait.
What was measured:
DRC1 (mouse) = molecular target: T1, DRC1 (mouse) (UniProt Q3USS3); assay: affinity purification with mass spectrometry; IP-MS for DRC2 and DRC1; no further conditions told
T1 sequence: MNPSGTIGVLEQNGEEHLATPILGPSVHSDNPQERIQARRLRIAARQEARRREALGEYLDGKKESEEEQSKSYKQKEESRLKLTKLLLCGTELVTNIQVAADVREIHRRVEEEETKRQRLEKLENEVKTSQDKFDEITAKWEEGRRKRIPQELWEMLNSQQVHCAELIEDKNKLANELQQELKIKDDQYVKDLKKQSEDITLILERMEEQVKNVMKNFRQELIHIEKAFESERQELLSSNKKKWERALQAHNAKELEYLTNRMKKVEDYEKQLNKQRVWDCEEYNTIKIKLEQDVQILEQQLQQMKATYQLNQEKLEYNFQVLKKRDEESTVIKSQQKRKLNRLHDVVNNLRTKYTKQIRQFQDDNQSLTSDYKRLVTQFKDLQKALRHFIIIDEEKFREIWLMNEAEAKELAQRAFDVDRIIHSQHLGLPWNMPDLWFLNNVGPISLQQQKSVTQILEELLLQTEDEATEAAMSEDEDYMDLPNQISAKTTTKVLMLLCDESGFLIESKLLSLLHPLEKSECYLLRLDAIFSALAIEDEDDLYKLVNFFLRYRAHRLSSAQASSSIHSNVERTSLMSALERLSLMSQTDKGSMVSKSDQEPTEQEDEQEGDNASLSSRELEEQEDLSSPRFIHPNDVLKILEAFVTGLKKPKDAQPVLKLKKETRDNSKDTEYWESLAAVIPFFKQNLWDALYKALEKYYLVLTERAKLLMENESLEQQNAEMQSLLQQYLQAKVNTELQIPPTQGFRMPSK

DRC2 (mouse) = molecular target: T2, DRC2 (mouse) (UniProt Q8VHI7); assay: as above
T2 sequence: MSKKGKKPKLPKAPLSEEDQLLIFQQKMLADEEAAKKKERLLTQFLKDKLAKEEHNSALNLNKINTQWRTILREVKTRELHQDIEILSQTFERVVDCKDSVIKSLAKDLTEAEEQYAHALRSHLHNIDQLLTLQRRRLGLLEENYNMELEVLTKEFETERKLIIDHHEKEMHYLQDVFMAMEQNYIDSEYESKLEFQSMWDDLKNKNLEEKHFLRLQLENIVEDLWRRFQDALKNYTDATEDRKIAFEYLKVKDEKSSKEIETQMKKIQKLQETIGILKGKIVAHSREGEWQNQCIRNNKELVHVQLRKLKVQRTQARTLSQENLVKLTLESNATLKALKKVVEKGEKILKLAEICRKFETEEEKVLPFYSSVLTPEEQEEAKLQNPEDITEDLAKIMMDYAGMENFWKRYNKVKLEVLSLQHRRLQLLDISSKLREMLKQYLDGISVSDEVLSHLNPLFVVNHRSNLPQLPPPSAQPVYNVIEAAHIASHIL

[1] = molecular target: T3, DRC4 (Growth arrest-specific protein 8) (mouse (endogenous in testis)) (UniProt Q60779); assay: affinity purification with mass spectrometry; DRC4 immunoprecipitated from mouse testis with anti-DRC4 antibody (Pierce crosslink IP kit); WT against Drc4-/- testes; LC-MS/MS
T3 sequence: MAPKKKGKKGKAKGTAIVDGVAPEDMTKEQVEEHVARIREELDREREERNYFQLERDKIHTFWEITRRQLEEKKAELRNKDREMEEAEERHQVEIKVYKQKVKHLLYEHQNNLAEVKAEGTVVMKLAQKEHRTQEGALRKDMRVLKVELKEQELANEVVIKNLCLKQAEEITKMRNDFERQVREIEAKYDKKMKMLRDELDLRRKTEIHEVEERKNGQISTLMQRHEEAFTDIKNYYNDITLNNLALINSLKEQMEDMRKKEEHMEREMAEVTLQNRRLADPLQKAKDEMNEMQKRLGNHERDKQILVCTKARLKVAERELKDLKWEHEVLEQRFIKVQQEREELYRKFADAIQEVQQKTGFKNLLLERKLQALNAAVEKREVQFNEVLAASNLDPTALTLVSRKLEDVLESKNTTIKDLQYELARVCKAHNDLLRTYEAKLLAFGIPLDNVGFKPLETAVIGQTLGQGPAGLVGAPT

B1: A-kinase anchor protein 3 (AKAP3) (protein, UniProt O88987 1-864)
chain: MADRVDWLQSQSGVCKVGVYSPGDNQHQDWKMDTSTDPVRVLSWLRKDLEKSTAGFQDSRFKPGESSFVEEVAYPVDQRKGFCVDYYNTTNKGSPGRLHFEMSHKENPSQGLISHVGNGGSIDEVSFYANRLTNLVIAMARKEINEKIHGAENKCVHQSLYMGDEPTPHKSLSTVASELVNETVTACSKNISSDKAPGSGDRASGSSQAPGLRYTSTLKIKESTKEGKCPDDKPGTKKSFFYKEVFESRNAGDAKEGGRSLPGDQKLFRTSPDNRPDDFSNSISQGIMTYANSVVSDMMVSIMKTLKIQVKDTTIATILLKKVLMKHAKEVVSDLIDSFMKNLHGVTGSLMTDTDFVSAVKRSFFSHGSQKATDIMDAMLGKLYNVMFAKKFPENIRRARDKSESYSLISTKSRAGDPKLSNLNFAMKSESKLKENLFSTCKLEKEKTCAETLGEHIIKEGLHMWHKSQQKSPGLERAAKLGNAPQEVSFECPDPCEANPPHQPQPPENFANFMCDSDSWAKDLIVSALLLIQYHLAQGGKMDAQSFLEAAASTNFPTNKPPPPSPVVQDECKLKSPPHKICDQEQTEKKDLMSVIFNFIRNLLSETIFKSSRNCESNVHEQNTQEEEIHPCERPKTPCERPITPPAPKFCEDEEATGGALSGLTKMVANQLDNCMNGQMVEHLMDSVMKLCLIIAKSCDSPLSELGEEKCGDASRPNSAFPDNLYECLPVKGTGTAEALLQNAYLTIHNELRGLSGQPPEGCEIPKVIVSNHNLADTVQNKQLQAVLQWVAASELNVPILYFAGDDEGIQEKLLQLSATAVEKGRSVGEVLQSVLRYEKERQLDEAVGNVTRLQLLDWLMANL
B1 was tested, and the binding (DRC1 (mouse)) was “no binding”, the binding (DRC2 (mouse)) was “no binding” and the binding [1] was “binds”.
